Among the data in paper PMC6695207 are binding values, retold here.

By UniProt entry, the sequences of proteins in these tests, tags left out. Where a name states a change or a piece, a line headed by the entry shows the natural chain unless it says otherwise.
UniProt Q9FMR9: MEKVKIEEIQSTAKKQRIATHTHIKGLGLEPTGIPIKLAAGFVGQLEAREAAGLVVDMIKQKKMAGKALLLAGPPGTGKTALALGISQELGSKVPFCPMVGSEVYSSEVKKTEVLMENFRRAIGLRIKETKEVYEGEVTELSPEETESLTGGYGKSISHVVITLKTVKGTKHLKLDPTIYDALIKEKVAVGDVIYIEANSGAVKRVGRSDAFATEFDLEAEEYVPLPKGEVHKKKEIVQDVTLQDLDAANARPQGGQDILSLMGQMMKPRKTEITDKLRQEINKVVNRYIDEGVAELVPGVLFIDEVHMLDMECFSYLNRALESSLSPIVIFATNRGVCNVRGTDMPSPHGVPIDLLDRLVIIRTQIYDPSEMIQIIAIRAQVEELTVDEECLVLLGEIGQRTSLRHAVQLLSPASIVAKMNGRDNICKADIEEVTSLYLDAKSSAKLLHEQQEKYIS
UniProt O23628: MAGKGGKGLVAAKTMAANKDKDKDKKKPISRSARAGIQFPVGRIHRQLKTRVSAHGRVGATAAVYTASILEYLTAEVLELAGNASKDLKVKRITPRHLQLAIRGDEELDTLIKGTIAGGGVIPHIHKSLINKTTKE
UniProt Q9SGH2: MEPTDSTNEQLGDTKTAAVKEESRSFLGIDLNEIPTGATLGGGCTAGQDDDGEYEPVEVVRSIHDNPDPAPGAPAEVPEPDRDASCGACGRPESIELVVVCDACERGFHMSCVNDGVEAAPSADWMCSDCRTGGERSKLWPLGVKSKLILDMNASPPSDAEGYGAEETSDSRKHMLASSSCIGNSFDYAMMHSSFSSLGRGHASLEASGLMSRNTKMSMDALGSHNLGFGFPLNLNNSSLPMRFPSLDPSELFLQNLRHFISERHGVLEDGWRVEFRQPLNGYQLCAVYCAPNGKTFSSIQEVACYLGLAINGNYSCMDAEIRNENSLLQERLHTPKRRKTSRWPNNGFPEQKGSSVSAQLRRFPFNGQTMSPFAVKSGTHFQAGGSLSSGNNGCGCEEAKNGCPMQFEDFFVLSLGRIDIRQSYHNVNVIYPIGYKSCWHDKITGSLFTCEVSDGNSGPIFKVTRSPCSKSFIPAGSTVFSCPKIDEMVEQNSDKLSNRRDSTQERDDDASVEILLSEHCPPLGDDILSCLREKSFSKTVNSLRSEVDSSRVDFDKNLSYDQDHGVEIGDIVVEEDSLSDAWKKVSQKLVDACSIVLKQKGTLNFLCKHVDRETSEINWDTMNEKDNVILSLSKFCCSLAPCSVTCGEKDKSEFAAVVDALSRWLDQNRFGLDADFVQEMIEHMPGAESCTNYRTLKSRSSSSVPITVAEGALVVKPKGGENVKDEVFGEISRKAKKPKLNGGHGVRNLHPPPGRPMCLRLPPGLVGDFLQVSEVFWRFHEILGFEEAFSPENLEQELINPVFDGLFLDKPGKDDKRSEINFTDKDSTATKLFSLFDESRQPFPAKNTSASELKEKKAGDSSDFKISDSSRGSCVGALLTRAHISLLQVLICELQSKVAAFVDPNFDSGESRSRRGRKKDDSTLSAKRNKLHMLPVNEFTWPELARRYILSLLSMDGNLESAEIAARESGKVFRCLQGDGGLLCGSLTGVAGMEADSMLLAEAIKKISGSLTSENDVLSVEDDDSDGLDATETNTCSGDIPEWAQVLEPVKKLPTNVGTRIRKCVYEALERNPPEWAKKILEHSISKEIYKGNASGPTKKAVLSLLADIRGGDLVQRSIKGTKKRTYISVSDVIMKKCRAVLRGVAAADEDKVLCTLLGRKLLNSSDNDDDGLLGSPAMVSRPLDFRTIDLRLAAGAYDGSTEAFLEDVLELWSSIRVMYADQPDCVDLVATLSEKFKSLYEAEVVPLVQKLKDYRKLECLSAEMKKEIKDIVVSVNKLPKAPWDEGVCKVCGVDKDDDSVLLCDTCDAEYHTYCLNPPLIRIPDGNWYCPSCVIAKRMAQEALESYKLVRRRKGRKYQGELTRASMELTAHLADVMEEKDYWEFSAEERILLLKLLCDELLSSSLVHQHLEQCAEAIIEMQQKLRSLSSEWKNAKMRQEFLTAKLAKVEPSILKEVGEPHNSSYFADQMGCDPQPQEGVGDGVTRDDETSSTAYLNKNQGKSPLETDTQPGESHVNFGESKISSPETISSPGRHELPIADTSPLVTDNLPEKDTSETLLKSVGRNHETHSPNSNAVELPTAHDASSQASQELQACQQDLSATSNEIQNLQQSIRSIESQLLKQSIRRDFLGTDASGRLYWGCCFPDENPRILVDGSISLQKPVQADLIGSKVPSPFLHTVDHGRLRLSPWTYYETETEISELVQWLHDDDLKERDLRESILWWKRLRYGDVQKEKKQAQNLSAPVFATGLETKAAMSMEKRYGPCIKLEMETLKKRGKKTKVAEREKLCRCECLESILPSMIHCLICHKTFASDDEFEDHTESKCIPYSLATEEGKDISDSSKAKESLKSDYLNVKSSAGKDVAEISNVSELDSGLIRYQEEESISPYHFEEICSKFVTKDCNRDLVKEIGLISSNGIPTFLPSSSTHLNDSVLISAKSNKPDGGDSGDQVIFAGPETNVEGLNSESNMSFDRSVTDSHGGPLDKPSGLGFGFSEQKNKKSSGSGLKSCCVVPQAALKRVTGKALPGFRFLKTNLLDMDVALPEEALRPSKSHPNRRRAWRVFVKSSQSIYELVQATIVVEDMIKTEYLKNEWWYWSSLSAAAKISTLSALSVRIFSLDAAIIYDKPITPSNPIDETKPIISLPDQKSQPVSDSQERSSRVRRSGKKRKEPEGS
UniProt Q9FFC0: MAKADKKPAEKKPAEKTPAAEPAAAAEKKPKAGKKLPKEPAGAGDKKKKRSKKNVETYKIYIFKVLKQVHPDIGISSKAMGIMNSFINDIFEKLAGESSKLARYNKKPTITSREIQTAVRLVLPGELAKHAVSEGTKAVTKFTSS
UniProt P40283: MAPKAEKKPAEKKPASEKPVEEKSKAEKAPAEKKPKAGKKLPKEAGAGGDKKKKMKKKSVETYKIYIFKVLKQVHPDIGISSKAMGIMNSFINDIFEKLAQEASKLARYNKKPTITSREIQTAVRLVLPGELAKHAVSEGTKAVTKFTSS
UniProt F4K569: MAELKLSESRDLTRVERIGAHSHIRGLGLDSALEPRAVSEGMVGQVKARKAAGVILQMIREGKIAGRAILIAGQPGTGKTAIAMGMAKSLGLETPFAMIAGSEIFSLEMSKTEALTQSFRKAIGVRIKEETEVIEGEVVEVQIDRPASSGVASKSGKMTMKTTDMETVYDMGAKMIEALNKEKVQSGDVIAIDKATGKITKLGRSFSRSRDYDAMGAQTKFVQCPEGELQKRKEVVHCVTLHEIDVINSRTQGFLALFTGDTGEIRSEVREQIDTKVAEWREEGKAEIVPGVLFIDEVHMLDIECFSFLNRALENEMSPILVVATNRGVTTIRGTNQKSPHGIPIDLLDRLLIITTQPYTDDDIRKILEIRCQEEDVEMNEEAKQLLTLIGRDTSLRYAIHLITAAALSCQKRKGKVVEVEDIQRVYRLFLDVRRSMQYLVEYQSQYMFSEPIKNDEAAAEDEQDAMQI

Assay in all cases: affinity purification with mass spectrometry; tandem affinity purification (IgG-Sepharose, then streptavidin-Sepharose columns, washes at 4°C) of GS^rhino-tagged ARP6 from 50 g of 6-day-old transgenic seedlings; on-bead digestion, LC-MS/MS; hits filtered against a WT TAP and the list of 760 known non-specific binders of the tag
The target of assay [1] is T1, C-TAP-ARP6 (ACTIN RELATED PROTEIN 6 with the GS^rhino TAP-tag at its C-terminal end) (Arabidopsis thaliana) (UniProt Q8LGE3).
T1 sequence: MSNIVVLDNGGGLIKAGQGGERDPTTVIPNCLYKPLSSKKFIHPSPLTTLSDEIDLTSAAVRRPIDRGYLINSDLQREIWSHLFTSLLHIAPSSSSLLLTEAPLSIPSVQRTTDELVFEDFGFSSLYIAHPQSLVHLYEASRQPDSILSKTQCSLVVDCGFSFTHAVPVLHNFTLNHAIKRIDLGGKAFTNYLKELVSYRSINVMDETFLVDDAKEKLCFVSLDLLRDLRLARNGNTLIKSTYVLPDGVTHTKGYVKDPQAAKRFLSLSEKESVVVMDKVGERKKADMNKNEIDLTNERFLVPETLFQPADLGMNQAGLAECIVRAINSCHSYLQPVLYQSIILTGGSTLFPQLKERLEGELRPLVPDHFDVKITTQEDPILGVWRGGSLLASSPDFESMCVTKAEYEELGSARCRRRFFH

Assay [2] has as its target T2, N-TAP-ARP6 (ACTIN RELATED PROTEIN 6 with the GS^rhino TAP-tag at its N-terminal end) (Arabidopsis thaliana) (UniProt Q8LGE3).
T2 sequence: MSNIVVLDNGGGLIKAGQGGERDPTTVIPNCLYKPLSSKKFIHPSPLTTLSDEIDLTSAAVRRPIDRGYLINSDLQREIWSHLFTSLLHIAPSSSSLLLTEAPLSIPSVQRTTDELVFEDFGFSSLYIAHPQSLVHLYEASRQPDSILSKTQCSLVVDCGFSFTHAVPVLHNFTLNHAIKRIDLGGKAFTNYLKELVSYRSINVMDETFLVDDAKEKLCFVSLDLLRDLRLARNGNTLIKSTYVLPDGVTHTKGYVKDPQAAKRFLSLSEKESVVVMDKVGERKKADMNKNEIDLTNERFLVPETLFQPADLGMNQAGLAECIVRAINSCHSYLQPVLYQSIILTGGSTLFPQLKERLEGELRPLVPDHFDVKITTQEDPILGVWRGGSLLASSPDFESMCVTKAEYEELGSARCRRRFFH

The target in assay [3] is T1, C-TAP-ARP6 (ACTIN RELATED PROTEIN 6 with the GS^rhino TAP-tag at its C-terminal end) (Arabidopsis thaliana). This is another data set of the same source.
In assay [4] the target is T2, N-TAP-ARP6 (ACTIN RELATED PROTEIN 6 with the GS^rhino TAP-tag at its N-terminal end) (Arabidopsis thaliana). This is another data set of the same source.

Like-named read-outs stand apart in the source and are kept apart here. Results are given in words; binding and its absence hold for the method and conditions named. In cells and extracts the contact can be indirect. These calls come from enrichment with a bait or labelling near it, and not all partners need be listed. For some assays here: No binding means not detected with the bait. Tags and fused reporters may be left off the sequences shown.

For RuvB1 (from UniProt Q9FMR9 1-458), the binding result in assay [1] and in assay [2] was “binds” each time. On to TRA1B, for which the binding result in assay [1] and in assay [2] was “binds” in each case. Consider “HTA11 (H2A.Z paralog) (from UniProt O23628 1-136)”, for which the binding entry in assay [1] and in assay [2] was “binds” throughout.

On to “PHOTOPERIOD-… EARLY FLOWERING 1 (PIE1) (from UniProt Q7X9V2 1-2055)”, for which the binding entry in assay [1] is reported as “binds”. As for TRA1A (from UniProt F4IPJ1), the binding entry in assay [1] and in assay [2] was “binds” each time. “Methyl-CpG-BINDING DOMAIN 9 (MBD9), endogenous (from UniProt Q9SGH2 1-2176)”: the binding result in assay [1] and in assay [2] was “binds” throughout. In the case of “HTB2 (H2B histone) (from UniProt Q9FFC0 1-145)”, the binding entry in assay [1] and in assay [2] was “binds” in each case. With “HTB4 (H2B histone) (from UniProt P40283 1-150)”, the binding entry in assay [1] and in assay [2] was “binds” in each case.

For the molecule RuvB2 (from UniProt F4K569), the binding result in assay [1] and in assay [2] was “binds” each time.

B1: AL6 (Alfin1-like family) (protein, UniProt Q8S8M9 1-256)
chain: MEGITHPIPRTVEEVFSDFRGRRAGLIKALTNDMVKFYQTCDPEKENLCLYGLPNETWEVNLPVEEVPPELPEPALGINFARDGMQEKDWVSLVAVHSDSWLLSVAFYFGARFGFGKNERKRLFQMINELPTIFEVVSGNAKQSKDLSVNNNNSKSKPSGVKSRQSESLSKVAKMSSPPPKEEEEEEDESEDESEDDEQGAVCGACGDNYGTDEFWICCDACEKWFHGKCVKITPAKAEHIKHYKCPTCSNKRARP
Turning to B1, the binding entry in assay [3] and in assay [4] was “binds” throughout.

B2: ALFIN-LIKE 5 (AL5) (protein, UniProt Q5XEM9 1-260)
chain: MEGGTAHYSPRTVEEVFRDFKGRRAGIIQALTTDVEDFFQQCDPEKQNLCLYGFPNEVWEVNLPAEEVPPELPEPALGINFARDGMQERNWLSLVAVHSDAWLLSVSFYFGSRFGFDRADRKRLFSMINEVPTVYEVVTGNAEKQTKEMPSSANQNGNRSKSNSKMRGLESKSSKTIHAKDEEEGLELEEGEEEEDEDEDEHGETLCGACGDNYASDEFWICCDMCEKWFHGECVKITPARAEHIKHYKCPTCSNKRARP
For the molecule B2, the binding result in assay [3] and in assay [4] was “binds” in each case.

B3: SWC6 (protein, UniProt Q9FHW2 1-171)
chain: MEEEMSNRRVSNRTRKVATKMAAALTSNDNRTQAAIARLEALENDNGAIEVIDLNDDEEASLDEDDDLGYLQKKQHKGSKRKTRQAKALEARKAPKSFLELLQEANLESLPSHVPTYLKAAVGPPSSSSRRYFCSVCGYIAGYNCCLCGMRFCSIRCQNIHKDTRCQKFVA
With B3, the binding entry in assay [3] and in assay [4] was “binds” in each case.

B4: YAF9b (protein, UniProt F4IPK2 1-268)
chain: MESDIEILSEADASMRKLRIFGIDDREDENGRRRIKDVEVYVPIVCGSIAFYLGKKATEYRTHKWTVYVRGATNEDLGVVIKRVIFHLHPSFNNPTRVVDAPPFALSECGWGEFKIDITVFFHTDVCEKKLELSHVLKLNPENAYGPIPKSIKIPVVAESYNEVVFPDPFESFVARVHNHPAIQISNIPDGLNLPPPGVADTYYLMEKGDTKEHPLSPWFLKFSEVEELFKLTAARQKVQADIAKLKRQLIMVDGQPEGLESSSGYEC
Turning to B4, the binding result in assay [3] and in assay [4] was “no binding” throughout.

B5: SWR1 COMPLEX SUBUNIT 2 (SWC2) (protein, UniProt F4IP06 1-365)
chain: MEIDEEEPMVFLDRTTRATRGKRMTKLLDDEVEEDEQFWNQEALKEEEHDDEYEAEREVADEFDSDFNDDEPEPDAVAVNEKELRDLPKKRLIYPGKTASKKKKKKTKVVSQLEYIPGDEKPGEELGNKEQEEKEENEAQEDMEGEKVIRKSTRTSVVVRQAERDALRAAIQATTKPIQRKKVGEEKRMTQEEMLLEAAQTEIMNLRNLERVLAREEEVKKKAIVHKAVYKGPQIRYHSKDGCNYLEFCNGASFNSELSTKSVPYPEKAVCVITGLPAKYRDPKTGLPYATRDAFKAIRERFMDEHDGLRKKMEMGDLFDTLVAKGFATKQKRTKIPKSNKSFSLRSSARFLSSESEEESEEDSD
With B5, the binding result in assay [3] and in assay [4] was “binds” throughout.

B6: AL7 (Alfin1-like family) (protein, UniProt Q8LA16 1-252)
chain: MEGIQHPIPRTVEEVFSDFRGRRAGLIKALSTDVQKFYHQCDPEKENLCLYGLPNETWEVNLPVEEVPPELPEPALGINFARDGMQEKDWISLVAVHSDSWLISVAFYFGARFGFGKNERKRLFQMINDLPTIFEVVTGNAKQSKDQSANHNSSRSKSSGGKPRHSESHTKASKMSPPPRKEDESGDEDEDDEQGAVCGACGDNYGGDEFWICCDACEKWFHGKCVKITPAKAEHIKHYKCPSCTTSKKMKA
Regarding B6, the binding result in assay [3] and in assay [4] was “binds” throughout.

B7: ARP4 (protein, UniProt Q84M92 1-441)
chain: MYGGDEVSAIVVDLGSHTCKAGYAGEDAPKAVFPSVIGAVDGVEAMDVDVDSTKTNSNSEDSKTESEKEKSKRKLYVGSQAMSYRRDHMEVLSPIKDGIVSDWDLVDNIWEHAFKSCLMIDPTEHPMLLAEPPLNTQQQREKAAELMFEKYKVPALFMAKNPVLTSFATGRATSLVVDCGGGSTTISPVHDGYVLQKAVVSSPLGGEFLTDCLLKSLESKGIKIRPRYSFKRKEVRAGEFQVEDVDIPDTTESYKLFCQRMIVGDIKDSICRVPDTPYDDKSYSNIPTTSYELPDGQTLEIGADRFKVPDVMFNPSIVQTIPGMEKYAEMIPSVRGLPHMVMESINKCDVDIRRELYSSILLAGGTSSMQQLKERLEKDLIEESPHSARVKVLASGNTTERRFSVWIGGSILASLGSFQQMWFSKSEYEEHGASYIQRKCP
On to B7, for which the binding result in assay [3] and in assay [4] was “binds” throughout.

B8: YAF9a (protein, UniProt Q9FH40 1-268)
chain: MTNSSSSKKQAQDQPETSEPTLKSLKTKMTKSDEKQKKLKDIEISVPIVYGNVAFWLGKKASEYQSHKWAVYVRGATNEDISVVVKKVVFQLHSSFNSPTRVIEEPPFEVSESGWGEFEIAMTLHFHSDVCDKPLSLYHHLKLYPEDESGPLTMKKPVVVESYDEIVFPDPSESFLARVQNHPALTFPRLPSGYNLPAPMQVEDTGKKKRGDTKDHSLGQWFMSFSEADELLQLAAARQQVQAHIAKLRRQISLLEGQNQTVKTGSDL
Take B8: the binding result in assay [3] and in assay [4] was “binds” throughout.

B9: SWC4 (protein, UniProt Q8VZL6 1-441)
chain: MGGTDAKDILGLPKTPLSLTQEKKSRPQKESHRKPDGISREVYALTGGVAPLMPSIDLKRRPPADEKVAWKWLSFTNSARKDDLQLYHWVRVVNDVPPTGDYSFAKYNKSVDILKYTDEEYENHLTDSVWTKEETDQLFEFCQNFDLRFVVIADRFPVSRTVEELKDRYYSVNRALLRARAQSPADVANHPLMKEPYDITRDRERKRALSMVLSQSRHQEKKDAEILAEAKRITEMRLAARRAEEPDVSANENAGLDKADGVVPGRSVSPTSNSQLPATAVAPSTLTMADYASTLASLRMLHVYLRTYGLEQMVQAASSAVGLRTIKRVEQTLQDLGVNLKPKVPTKTVCDEHLELRKEILTLLNLQKQLQYKESEGSSHREGSYAAMPDTPKDRVFAPDPFSFGAERPIKKEQKRKGPGRQADTPSPAHKRPRKLKASDL
On to B9, for which the binding entry in assay [3] and in assay [4] was “binds” in each case.
